Measurements as given in patent US20230087125A1 (Memorial Sloan Kettering, published 2023).
Results are given in words; binding and its absence hold for the method and conditions named. Some results given as binding are weak or reduced against the parent protein; the word gives no strength.

By UniProt entry, the sequences of proteins in these tests, tags left out. Where a name states a change or a piece, a line headed by the entry shows the natural chain unless it says otherwise.
UniProt P16871: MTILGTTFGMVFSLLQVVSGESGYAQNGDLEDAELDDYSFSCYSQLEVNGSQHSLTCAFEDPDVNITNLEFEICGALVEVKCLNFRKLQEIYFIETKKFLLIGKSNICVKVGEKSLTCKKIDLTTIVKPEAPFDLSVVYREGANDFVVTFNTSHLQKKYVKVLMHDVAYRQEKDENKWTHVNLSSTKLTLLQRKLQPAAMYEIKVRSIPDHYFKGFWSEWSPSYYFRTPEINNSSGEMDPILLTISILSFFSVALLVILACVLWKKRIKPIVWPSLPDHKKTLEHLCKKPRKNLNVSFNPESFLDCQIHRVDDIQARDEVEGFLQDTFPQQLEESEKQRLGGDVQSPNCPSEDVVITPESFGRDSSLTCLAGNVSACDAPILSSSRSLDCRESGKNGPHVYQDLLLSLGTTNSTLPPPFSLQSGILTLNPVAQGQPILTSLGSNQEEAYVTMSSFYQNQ

What was measured:
[1] = molecular target: human IL-7R (CD127) on cells (human) (UniProt P16871); assay: flow cytometry on IL-7R expressing cells
[2] = molecular target: human IL-7R (CD127) on cells (human) (UniProt P16871); assay: flow cytometry on H358 cells and A549-7R cells
[3] = molecular target: human IL-7R (CD127) on cells (human) (UniProt P16871); assay: flow cytometry on H358 cells and IL-7R overexpressing A549 cells

binding [1]: binds
binding [2]: binds
binding [3]: binds
B1: OSE703 humanized anti-IL-7R monoclonal antibody (antibody, IgG1, V domains shown)
VH: AVQLVESGGGLVQPGGSLKITCAASGFTFTNAAMYWVRQAPGKGLEWVARIRTKANNYATYYADSVKGRFTISRDDSKSTVYLQMDSVKTEDTATYYCIVVVLTTTRDYFDYWGQGVLVTVSS
VL: DIVLTQSPSSLPVTPGEPASISCRSSQSLLTVKGITSLYWFLQKPGQSPKLLIYRMSNRDSGVPDRFSGSGSETDFTLKISRVEAEDVGTYYCAQFLEYPHTFGAGTKLELK
